From patent US20210380988A1, “Reducing Prominin2-Mediated Resistance to Ferroptotic Cell Death” (University of Massachusetts, priority 2020, published 2021)
At least one structure is not confirmed: it was looked up by name or label, or the drawing left a doubt.

How the values were obtained:
Assay type in all cases: cell-based
Hs578t cells [1] = assay: Survival of adherent cells in response to GPX4 inhibition (crystal violet)
Protocol: (§1) Cell-based assays: Assays to assess survival in response to matrix detachment were performed as described (Brown C W, 2017). To assay survival in response to GPX4 inhibition, adherent cells in 96 well plates (1.0×10^4 per well) were treated with either DMSO, RSL3, ML210, FIN56 or erastin for 24 hrs with and without ferrostatin-1 or DFO. Subsequently, cells were fixed in 4% paraformaldehyde (Boston BioProducts), stained with crystal violet (Sigma) and read on a microplate reader (Beckman Colter) at absorbance 595. Absorbances were normalized to DMSO.

MCF10A cells [2] = assay: as above
Protocol: as §1

Hs578t cells [3] = assay: Survival in response to matrix (ECM) detachment; details: 24 hrs, ferrostatin-1 (2 μM), ZVAD-fmk (25 μM), deferoxamine
Protocol: as §1

MCF10A cells [4] = assay: Survival in response to matrix (ECM) detachment; details: 24 hrs, ferrostatin-1 (2 μM), ZVAD-fmk (25 μM), deferoxamine
Protocol: as §1

MDA-MB-231 cells = assay: Survival of adherent cells in response to GPX4 inhibition (crystal violet); details: MDA-MB-231, prominin2 expression construct vs vector control
Protocol: as §1

[5] = RSL3 24 hrs, 100 uM deferoxamine
[6] = prominin2 siRNA 48 hours, compound 24 hrs

SMILES: CC(=O)N(O)CCCCCNC(=O)CCC(=O)N(O)CCCCCNC(=O)CCC(=O)N(O)CCCCCN [deferoxamine]
- rescue of cell death triggered by GPX4 inhibition in FTH1 and FTL knock-down cells (Hs578t cells [1]; [5]): rescued
- rescue of cell death triggered by GPX4 inhibition in FTH1 and FTL knock-down cells (MCF10A cells [2]; [5]): rescued
- rescue of cell viability of ECM-detached prominin2-silenced cells by co-treatment (Hs578t cells [3]): rescued
- rescue of cell viability of ECM-detached prominin2-silenced cells by co-treatment (MCF10A cells [4]): rescued

SMILES: Cc1nc(Nc2ncc(C(=O)Nc3c(C)cccc3Cl)s2)cc(N2CCN(CCO)CC2)n1 [dasatinib]
- sensitivity to RSL3 on co-treatment with other therapeutics (MCF10A cells [2]; 100 nM Dasatinib or 25 uM Erlotinib with RSL3, 24 hours): did not significantly improve sensitivity

SMILES: CCOc1ccccc1-n1c(C(C)N2CCN(C(=O)COc3ccc(Cl)cc3)CC2)nc2ccccc2c1=O (centres unmarked) [erastin]
- sensitivity to compound in prominin2 knock-down cells compared to control cells (Hs578t cells [1]; [6]): significant increase in sensitivity
- sensitivity to compound in prominin2 knock-down cells compared to control cells (MCF10A cells [2]; [6]): significant increase in sensitivity
- cell death in response to compound with exogenous prominin2 expression (MDA-MB-231 cells): sufficient to inhibit cell death
